Source: US20100323974A1
Results are given in words; binding and its absence hold for the method and conditions named. For part of these data: Binding seen in cells or lysates may run through a third protein. Some entries that bind do so weakly or less than the wild type.

Sequences of proteins named here, by UniProt entry; tags and fusion partners are left off. A change or cut given only in a name is not applied to a line headed by its entry.
UniProt P09874: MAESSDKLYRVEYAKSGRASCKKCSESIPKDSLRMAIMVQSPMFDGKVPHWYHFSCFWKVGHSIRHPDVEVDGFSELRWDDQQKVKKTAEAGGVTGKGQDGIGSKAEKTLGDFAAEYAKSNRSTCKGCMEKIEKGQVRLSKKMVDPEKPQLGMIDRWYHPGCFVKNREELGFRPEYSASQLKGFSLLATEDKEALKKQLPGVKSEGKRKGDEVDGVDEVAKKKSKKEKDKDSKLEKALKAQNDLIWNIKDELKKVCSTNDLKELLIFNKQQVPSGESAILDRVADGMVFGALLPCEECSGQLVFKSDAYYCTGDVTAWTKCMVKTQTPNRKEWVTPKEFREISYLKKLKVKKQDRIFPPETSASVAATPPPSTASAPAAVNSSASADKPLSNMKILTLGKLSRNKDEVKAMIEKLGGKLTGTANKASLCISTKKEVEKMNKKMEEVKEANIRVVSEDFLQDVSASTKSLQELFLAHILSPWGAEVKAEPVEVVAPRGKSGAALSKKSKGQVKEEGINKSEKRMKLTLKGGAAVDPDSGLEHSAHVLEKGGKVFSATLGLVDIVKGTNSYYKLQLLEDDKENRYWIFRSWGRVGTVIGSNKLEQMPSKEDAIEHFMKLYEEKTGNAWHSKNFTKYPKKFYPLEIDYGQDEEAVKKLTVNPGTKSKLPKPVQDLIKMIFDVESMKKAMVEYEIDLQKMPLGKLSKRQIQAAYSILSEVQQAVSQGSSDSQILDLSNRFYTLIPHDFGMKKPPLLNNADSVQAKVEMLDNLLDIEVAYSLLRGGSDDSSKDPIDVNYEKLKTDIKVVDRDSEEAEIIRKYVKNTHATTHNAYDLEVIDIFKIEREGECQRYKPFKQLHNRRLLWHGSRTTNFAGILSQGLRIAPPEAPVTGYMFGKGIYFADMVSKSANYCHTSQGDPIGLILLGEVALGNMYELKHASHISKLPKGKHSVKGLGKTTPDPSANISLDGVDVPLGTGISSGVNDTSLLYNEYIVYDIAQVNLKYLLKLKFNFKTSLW
UniProt O75367: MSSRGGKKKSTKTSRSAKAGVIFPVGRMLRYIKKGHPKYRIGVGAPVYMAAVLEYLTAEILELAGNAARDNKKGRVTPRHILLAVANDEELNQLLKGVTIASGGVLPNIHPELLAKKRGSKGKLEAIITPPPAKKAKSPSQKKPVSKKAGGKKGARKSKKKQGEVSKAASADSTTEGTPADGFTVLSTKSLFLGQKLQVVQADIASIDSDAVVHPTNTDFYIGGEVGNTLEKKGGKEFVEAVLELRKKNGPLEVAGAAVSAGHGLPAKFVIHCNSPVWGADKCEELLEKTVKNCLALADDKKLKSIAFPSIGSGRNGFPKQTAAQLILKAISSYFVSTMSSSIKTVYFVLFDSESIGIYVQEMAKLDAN

What was measured:
[1] = target: Human recombinant PARP-1 (ALEXIS) (Human) (UniProt P09874); test: GST pull-down, PBS with 100 mM KCl and 0.02% NP40, anti-PARP-1 immunoblot
[2] = target: e-mH2A1.1 nucleosomes with a triple tagged version of mH2A1.1 (FLAG-HA-HIS) (human) (UniProt O75367); test: FLAG-HA purified mononucleosomes on a hydroxyl apatite column, 0.65 M NaCl wash, 2M NaCl elution, SDS-PAGE
[3] = target: e-mH2A1.1 nucleosome complex (macroH2A1.1 histone with N-terminal double HA and double Flag epitope tags, in mononucleosomes purified from HeLa cells) (human) (UniProt O75367); test: silver stained gel of the purified complex and glycerol gradient fractions
[4] = target: e-mH2A1.1 nucleosome complex (macroH2A1.1 histone with N-terminal double HA and double Flag epitope tags, in mononucleosomes purified from HeLa cells) (human) (UniProt O75367); test: tagged nucleosome complexes isolated at 150 mM NaCl, silver stained SDS-PAGE, PARP-1 relative to histone H1
[5] = target: e-mH2A1.1 nucleosome complex (macroH2A1.1 histone with N-terminal double HA and double Flag epitope tags, in mononucleosomes purified from HeLa cells) (human) (UniProt O75367); test: 15-35% glycerol gradient of the purified complex, fractions on 4-12% SDS PAGE

| binding [1] | binding [2] | binding [3] | binding [4] | binding [5] | Substance |
| --- | --- | --- | --- | --- | --- |
| binds | – | – | – | – | GST-NHR (GST fused to the non histone region of macroH2A1.1) (from UniProt O75367 121-369) |
| binds | – | – | – | – | GST-macroH2A1.1 (from UniProt O75367 1-369) |
| – | binds | binds | binds | binds | poly(ADP-ribose) polymerase I (PARP-1), native, co-purified from HeLa cells (from UniProt P09874 2-1014) |
